The values below come from patent publication US12421193B2, “GPR52 modulators and methods of use” (Neurocrine Biosciences, Inc., priority 2020, dated 2025).

Amino acid sequences for entries named in this document (tags omitted).
UniProt Q9Y2T5, whole entry: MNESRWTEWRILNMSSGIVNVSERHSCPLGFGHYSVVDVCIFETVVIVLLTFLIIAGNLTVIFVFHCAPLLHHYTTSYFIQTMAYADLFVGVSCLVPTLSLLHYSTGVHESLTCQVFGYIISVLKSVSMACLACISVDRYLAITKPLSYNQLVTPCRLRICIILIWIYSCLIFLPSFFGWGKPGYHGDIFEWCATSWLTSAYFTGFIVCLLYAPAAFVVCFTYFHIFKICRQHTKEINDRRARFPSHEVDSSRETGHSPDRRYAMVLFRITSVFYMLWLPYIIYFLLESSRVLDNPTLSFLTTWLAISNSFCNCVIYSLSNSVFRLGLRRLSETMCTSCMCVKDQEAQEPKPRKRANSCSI

This experiment addresses recombinant human GPR52 (Homo sapiens, UniProt Q9Y2T5). Briefly: TR-FRET cAMP assay (LANCE Ultra cAMP Kit), GPR52 activity. To be noted: Flp-In-CHO cells stably expressing recombinant human GPR52; cAMP production, normalized to the positive control. How it is done: TR-FRET cAMP assays were performed using commercially available assay kits (LANCE™ Ultra cAMP Kit). Controls and compounds were solubilized in DMSO using ½ log dilution to generate duplicate 10-point dose response curves in 384-well polypropylene compound plates. Sixty nanoliters of the diluted compounds were transferred into 384-well NBS assay plates and further diluted to 1× with the addition of 2000 cells per well. Flp-In™—CHO cells that stably express recombinant human GPR52.
Cells were harvested with cell stripper and resuspended in Stimulation Buffer (5 mM HEPES, 0.1% bovine serum albumin (BSA), 0.5 mM IBMX, pH 7.4). After thirty minutes incubation at room temperature, detection reagents were added to each well. Plates were then incubated for 30 minutes at room temperature. The LANCE™ Ultra cAMP assay uses time-resolved fluorescence resonance energy transfer (TR-FRET) to detect cAMVP production; this signal was quantified using a Pherastar multi-mode plate reader.
Dose-response curves were generated from the fluorescence counts normalized to the positive control. E EC50 values were obtained using a nonlinear regression curve-fitting program. Table 2 provides EC50 values where A is <25 nM; B is 25-100 nM; C is 101-1000 nM; and D is >1000 nM.
For orientation: In TR-FRET formats the signal depends on donor and acceptor labels being close together.

As a reminder, the EC50 is the concentration giving half of the maximal effect.

Molecules are shown by their SMILES. Structures were worked out from names or drawings and are uncertain.

Regarding `Cc1cc(-c2cc(COc3ccc(C(F)(F)F)c(Cl)c3)ccn2)ccc1C(N)=O`, the EC50 was < 25 nM.
